Laboratory results: PMC3477312, “Characterization of Vibrio cholerae Hfq Provides Novel Insights into the Role of the Hfq C-Terminal Region” (Journal of Molecular Biology, 2012)
No constants are given. Whether binding was seen depends on the method and setting.

Amino acid sequences for entries named in this document (tags omitted).
UniProt Q9KV11: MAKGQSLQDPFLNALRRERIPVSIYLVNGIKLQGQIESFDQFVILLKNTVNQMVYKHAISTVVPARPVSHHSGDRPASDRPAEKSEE

Target: Vibrio cholerae Hfq (Vibrio cholerae) (UniProt Q9KV11)
Assay: condition: only heated at 95 °C for 60 s in the presence of 1% SDS; SDS-PAGE stability assay; 1 ug protein in loading buffer with 1% SDS heated at 95 °C for 0 to 300 s, 10% SDS-PAGE, hexamer and monomer bands quantified; hexamer to monomers; both purified

Vibrio cholerae Hfq (from UniProt Q9KV11 1-87)
binding: no binding
